Experimental data taken from the supplement of paper PMC8256030.
Where “and” joins values, the source holds several entries; their conditions need not be identical. Equal values may be shown once. Where a name gives a salt, the structure may show the parent alone. The list shows a part of the results. Single values are uncertain here, since repeats match poorly.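 HEK293T cells were given each compound shortly before transfection with a reporter in which red mCherry is followed by the SARS-CoV-2 frameshift element and then GFP in the −1 frame, so GFP appears only after frameshifting.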

These molecules were tested on SARS-CoV-2 -1 PRF reporter mCherry-FSE-GFP(-1) (assay: percent effect, decrease of GFP/mCherry ratio (-1 PRF reporter) relative to controls; higher = stronger frameshift inhibition). Settings: 10 µM; 24 h; HEK293T.

SMILES | percent effect
CO[C@@]1(NC(=O)C2SC(=C(C(N)=O)C(=O)O)S2)C(=O)N2C(C(=O)O)=C(CSc3nnnn3C)CS[C@@H]21 (stereo not given in full) | -1.62%
CCN(CC)Cc1cc(Nc2ccnc3cc(Cl)ccc23)ccc1O | 0.237%
O=c1oc2ccccc2c(O)c1Cc1c(O)c2ccccc2oc1=O | -4.91%
CN1CCCC(n2nc(Cc3ccc(Cl)cc3)c3ccccc3c2=O)CC1 (stereo not given) [azelastine] | 0.0404%
CCCN(CCC)C(=O)C(CCC(=O)O)NC(=O)c1ccccc1 (stereo not given) [proglumide] | -4.6%
Nc1ccn(C[C@@H](CO)OCP(=O)(O)O)c(=O)n1 [Vistide] | -3.96%
Nc1nc(=O)n([C@@H]2O[C@H](CO)[C@@H](O)[C@@H]2F)cc1I [fiacitabine] | -0.601%
CNCC(=O)N[C@@H](CCCNC(=N)N)C(=O)N[C@H](C(=O)N[C@@H](Cc1ccc(O)cc1)C(=O)N[C@H](C(=O)N[C@@H](Cc1cnc[nH]1)C(=O)N1CCC[C@H]1C(=O)N[C@@H](C)C(=O)O)C(C)C)C(C)C [saralasin] | -9.94%
CN[C@@H]1[C@H](O)[C@H](NC)[C@H]2O[C@@]3(O)C(=O)C[C@@H](C)O[C@H]3O[C@@H]2[C@H]1O [Spectinomycin·2HCl] | 2.6%
COc1ccc(CC(C)(C)NC[C@H](O)c2cc(O)cc3c2OCC(=O)N3)cc1 [Olodaterol] | -6.66% and -0.201%
CCCCCC1C(=O)N2C=C(c3ccccc3)c3ccccc3N2C1=O (stereo not given) [cinnopentazone] | -7.29%
N[C@@H](Cc1c[nH]c2ccc(O)cc12)C(=O)O [oxitriptan] | -1.68%
O=C(O)[C@@H](S)[C@@H](S)C(=O)O [succimer] | -8.47%
COc1cc2c(cc1OC)-c1c/c(=N\c3c(C)cc(C)cc3C)n(C)c(=O)n1CC2 [Trequinsin·HCl] | -11.8%
Nc1nc2c(ncn2COCCO)c(=O)[nH]1 | 1.42%
NNC(=O)c1ccncc1 [isoniazid] | -3.42% and -9.43%
CC(C1=C(CCN(C)C)Cc2ccccc21)c1ccccn1 (stereo not given) [dimetindene] | -1.83%
CCN(CC)CCNC(=O)c1cc(S(C)(=O)=O)ccc1OC [tiapride] | 1.78%
CC1=C(C(=O)O)N2C(=O)[C@@H](NC(=O)[C@H](N)c3ccc(O)cc3)[C@H]2SC1 [cefadroxil] | -0.0212%
CN1CCN(CCCCN2C(=O)CN(/N=C/c3ccc(-c4ccc(Cl)cc4)o3)C2=O)CC1 [azimilide] | -2.07%

SMILES | percent effect
CC(C)C(=O)Oc1ccc(CO)cc1[C@H](CCN(C(C)C)C(C)C)c1ccccc1 [Fesoterodine] | 0.863%
CCCCC(CC)COc1ccc(-c2nc(-c3ccc(OC)cc3)nc(-c3ccc(OCC(CC)CCCC)cc3O)n2)c(O)c1 (stereo not given) | -2.88%
C[C@H](CCC(=O)O)[C@H]1CC[C@H]2[C@@H]3CC[C@@H]4C[C@H](O)CC[C@]4(C)[C@H]3C[C@H](O)[C@]12C [deoxycholic acid] | 2.73%
CC1=C(C(=O)O)N2C(=O)[C@@H](NC(=O)[C@H](N)C3=CCC=CC3)[C@H]2SC1 [cefradine] | -3.61%
Cc1c(C(=O)OCCO)[n+]([O-])c2ccccc2[n+]1[O-] [temodox] | -12.8%
Cc1c(Nc2ncccc2C(=O)O)cccc1C(F)(F)F [flunixin] | -2.65%
CCOC(=O)C(C#N)=C(c1ccccc1)c1ccccc1 [etocrilene] | -5.84%
O=c1oc2cc(O)ccc2s1 [tioxolone] | -0.613%
C[C@@H](O)[C@H]1C(=O)N2C(C(=O)O)=C(S[C@@H]3CN[C@H](C(=O)N(C)C)C3)[C@H](C)[C@H]12 [Meropenem] | -2.93%
COc1ccc([C@]2(C#N)CC[C@@H](C(=O)O)CC2)cc1OC1CCCC1 [cilomilast] | -6.83%
C[C@@H](c1ncncc1F)[C@](O)(Cn1cncn1)c1ccc(F)cc1F [voriconazole] | -2.94%
CC(CC(c1ccccc1)c1ccccc1)NC(C)(C)C (stereo not given) [terodiline] | -4.6%
Oc1cc(O)c(Cl)cn1 [gimeracil] | -4.23%
CN1CCC(OC(=O)C(Oc2ccc(Cl)cc2)Oc2ccc(Cl)cc2)CC1 [lifibrate] | -9.76%
N=C(N=C(N)N)N1CCOCC1 | 0.193%
CCOC(=O)c1ccc(O)cc1 | 1.74%
CC1(C)O[C@@H]2C[C@H]3[C@@H]4CCC5=CC(=O)C=C[C@]5(C)[C@H]4[C@@H](O)C[C@]3(C)[C@]2(C(=O)CO)O1 [desonide] | -2.97%
CC(C)CCCC(C)NCCC(C)C (stereo not given) [octamylamine] | -1.32%
O=C(O)c1ccc(NC(=O)[C@H](Cc2ccc(O)cc2)NC(=O)c2ccccc2)cc1 [Chymex] | -2.01%
O=C(NNCS(=O)(=O)O)c1ccncc1 [methaniazide] | -3.32%

Rewritten in markdown: entries from further up

| SMILES | percent effect |
| --- | --- |
| N[C@@H](Cc1c[nH]c2ccc(O)cc12)C(=O)O [oxitriptan] | -1.68% |
| O=C(O)[C@@H](S)[C@@H](S)C(=O)O [succimer] | -8.47% |
